Reference: PMC11144275 (The Lancet. Infectious diseases, 2019)
Where a name gives a salt, the structure may show the parent alone.

Tests used:
EBOV-Makona = assay type: cell-based, Ebola virus
EBOV-Ituri = assay type: cell-based, Ebola virus

For CCCCc1oc2ccccc2c1C(=O)c1cc(I)c(OCCN(CC)CC)c(I)c1 [Amiodarone hydrochloride], the “EBOV-Makona Selectivity index” value (EBOV-Makona) was 15, the “EBOV-Ituri Selectivity index” value (EBOV-Ituri) was 25 and the CC50 (Huh-7 cells) was 13·89 (1·91) μM.
